Test results as given in patent US20240116987A1, “POLYPEPTIDE INHIBITORS OF LACTATE DEHYDROGENASE ACTIVITY FOR USE IN CANCER THERAPY” (UNIVERSITÉ CATHOLIQUE DE LOUVAIN, priority 2021, published 2024).

Test: Mass photometry (oligomeric state in solution)
Type: physicochemical, human
Settings: for Mw (main oligomeric state, mass photometry): means ± SD, theoretical tetramer 155 kDa, dimer 78 kDa

| Substance | Oligomeric state in solution according to MP | Mw (main oligomeric state, mass photometry) [kDa] |
| --- | --- | --- |
| E62A: LDH-H recombinant alanine variant E62A of SEQ ID NO: 2 | behaving mainly as dimers in solution | – |
| LDH-Htr: dimeric model of LDH-H obtained by truncating its N-terminal tetramerization domain [reference compound] | equilibrium between dimers and tetramers in solution | 88 ± 13 |
| F72A: LDH-H recombinant alanine variant F72A of SEQ ID NO: 2 | behaving mainly as dimers in solution | 70 ± 17 |
| L71A: LDH-H recombinant alanine variant L71A of SEQ ID NO: 2 | behaving as a mixture of tetramers and dimers | 148 ± 12 |
